Laboratory results reported in US7459444B2, “Inhibitors of chymase” (Janssen Pharmaceutica N.V., priority 2004, dated 2008).
The match of structure and compound is tentative.

Sequences of proteins named here, by UniProt entry; tags and fusion partners are left off. Residues count along the entry.
UniProt P23946, 22-247 limits assumed: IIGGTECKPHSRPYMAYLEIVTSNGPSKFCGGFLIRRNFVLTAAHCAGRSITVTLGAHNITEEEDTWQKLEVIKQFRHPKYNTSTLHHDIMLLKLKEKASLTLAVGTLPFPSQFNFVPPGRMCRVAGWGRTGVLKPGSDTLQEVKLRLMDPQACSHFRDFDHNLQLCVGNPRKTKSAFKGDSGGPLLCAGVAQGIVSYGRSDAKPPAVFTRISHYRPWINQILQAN

Target: human skin chymase (Homo sapiens, UniProt P23946)
Test: Enzyme-catalyzed hydrolysis assay (chymase inhibition)
Format: biochemical
Conditions: read-out: IC50 (μM) Chymase; 10 nM enzyme, 0.7 mM Suc-Ala-Ala-Pro-Phe-pNa, pH 8.0, 37° C., 30 minutes

IC50: 4.34 µM
SMILES: O=C(Nc1cc2ccccc2cc1O)C(c1cccc2ccccc12)P(=O)(O)O (stereo not shown)
